Data as given in the supplement of paper PMC6331611.
Where “and” joins values, the source holds several entries; their conditions need not be identical. Equal values may be shown once. ± gives the standard deviation of the averaged measurements. Whole data set: some 1,600 compounds, median “normalized intracellular growth (luminescence, IQM-normalized) in RAW264.7 macrophages” near 1, cut for the lowest 2% near 0.43. This is one part of the list.

Tested on: Salmonella enterica serovar Typhimurium SL1344
Test: normalized intracellular growth (luminescence, IQM-normalized) in RAW264.7 macrophages (fraction of plate interquartile mean); higher = more bacterial growth (less inhibition)
Conditions: 10 µM

| SMILES | normalized intracellular growth (time point: T3 (3 h)) | normalized intracellular growth (time point: Tfinal (~6 h)) |
| --- | --- | --- |
| CC(=O)c1ccc2c(c1)N(CCCN1CCN(CCO)CC1)c1ccccc1S2 | 1.04 ± 0.024 | 0.807 ± 0.11 |
| O=C(O)c1cc(=O)c2c(OCC(O)COc3cccc4oc(C(=O)O)cc(=O)c34)cccc2o1 | 1.06 ± 0.083 | 0.884 ± 0.079 |
| CO/N=C1\CN(c2nc3c(cc2F)c(=O)c(C(=O)O)cn3C2CC2)CC1CN (stereo not drawn) | 0.967 ± 0.014 | 1.15 ± 0.048 |
| Clc1ccccc1C(c1ccccc1)(c1ccccc1)n1ccnc1 | 1.03 ± 0.059 | 0.887 ± 0.025 |
| NC(=O)NO | 0.998 ± 0.06 | 0.976 ± 0.038 |
| Clc1ccc(COC(Cn2ccnc2)c2ccc(Cl)cc2Cl)cc1 (stereo not drawn) | 0.972 ± 0.039 | 1.11 ± 0.19 |
| Cc1cc(CC(C)CC(C)(C)C)n(O)c(=O)c1 (stereo not drawn) | 1.03 ± 0.027 | 1.24 ± 0.035 |
| CCCC(C(=O)OCCN(CC)CC)(c1ccccc1)c1ccccc1 | 0.91 ± 0.067 | 0.988 ± 0.14 |
| CN1CCC[C@H]1c1cccnc1 | 0.982 ± 0.07 | 1.07 ± 0.04 |
| O=S(=O)(O)CCSSCCS(=O)(=O)O | 1.02 ± 0.061 | 0.986 ± 0.18 |
| O=P(O)(O)C(O)(Cc1cccnc1)P(=O)(O)O | 1.01 ± 0.063 | 0.987 ± 0.22 |
| CCN(CC)C(=O)N1CCN(C)CC1 | 0.964 ± 0.047 | 1.15 ± 0.056 |
| CC[C@]1(O)C[C@@H]2CN(CCc3c([nH]c4ccccc34)[C@@](C(=O)OC)(c3cc4c(cc3OC)N(C)[C@H]3[C@@](O)(C(=O)OC)[C@H](OC(C)=O)[C@]5(CC)C=CCN6CC[C@]43[C@@H]65)C2)C1 | 1.04 ± 0.094 | 1.12 ± 0.067 |
| CC(CCc1ccc(O)cc1)NCC(O)c1ccc(O)cc1 (stereo not drawn) | 1.06 ± 0.052 | 0.917 ± 0.087 |
| CC(=O)[C@H]1CC[C@H]2[C@@H]3CC=C4C[C@@H](OC(=O)CCC(=O)O)CC[C@]4(C)[C@H]3CC[C@]12C | 0.966 ± 0.034 | 0.948 ± 0.2 |
| CCN(CCCc1ccccc1)CCCc1ccccc1 | 1.04 ± 0.05 | 1.04 ± 0.1 |
| CCCCC(CC)COC(=O)c1ccccc1O (stereo not drawn) | 1.05 ± 0.055 | 0.89 ± 0.17 |
| CCC(=O)NCC[C@@H]1CCc2ccc3c(c21)CCO3 | 1.022 ± 0.01 | 0.8654 ± 0.0019 |
| CNC(=O)c1c(I)c(NC(C)=O)c(I)c(C(=O)O)c1I | 1.01 ± 0.056 | 0.883 ± 0.21 |
| OCC(O)CN1CCN(c2ccccc2)CC1 (stereo not drawn) | 1.03 ± 0.058 | 1.03 ± 0.17 |
| CN(C)CCCC1(c2ccc(F)cc2)OCc2cc(C#N)ccc21 (stereo not drawn) | 1.04 ± 0.12 | 0.857 ± 0.19 |
| CCCC(CCC)C(=O)O | 0.927 ± 0.017 | 0.964 ± 0.078 |

| SMILES | normalized intracellular growth (time point: T3 (3 h)) | normalized intracellular growth (time point: Tfinal (~6 h)) |
| --- | --- | --- |
| Cc1onc(-c2ccccc2)c1C(=O)N[C@@H]1C(=O)N2[C@@H]1SC(C)(C)[C@@H]2C(=O)O | 0.987 ± 0.046 | 1.27 ± 0.15 |
| Cc1c(OCC(F)(F)F)ccnc1C[S+]([O-])c1nc2ccccc2[nH]1 (stereo not drawn) | 0.98 ± 0.034 | 1.08 ± 0.12 |
| O=C([O-])C(O)[C@H](O)[C@@H](O)[C@H](O)[C@H](O)CO.O=C([O-])C(O)[C@H](O)[C@@H](O)[C@H](O)[C@H](O)CO.[Ca+2] (stereo partly drawn) | 1.04 ± 0.019 | 1.06 ± 0.18 |
| CC(C)(C)NCC(O)c1ccc(O)c(CO)c1 (stereo not drawn) | 1 ± 0.027 | 0.871 ± 0.13 |
| CC(O)CC(C)(C)O (stereo not drawn) | 1.05 ± 0.086 | 0.769 ± 0.19 |
| COc1ccc2cc1Oc1ccc(cc1)C[C@H]1c3c(cc4c(c3Oc3cc5c(cc3OC)CCN(C)[C@@H]5C2)OCO4)CCN1C | 0.485 ± 0.17 | 0.75 ± 0.025 |
| CCOC(=O)c1ccc(O)cc1 | 1.01 ± 0.069 | 0.638 ± 0.09 |
| CC1CCc2cc(F)cc3c(=O)c(C(=O)O)cn1c23 (stereo not drawn) | 0.937 ± 0.026 | 0.389 ± 0.025 |
| CCCCOc1ccc(OCCCN2CCOCC2)cc1 | 1.08 ± 0.075 | 0.935 ± 0.094 |
| CC(C)[C@H]1CC[C@H](C(=O)N[C@H](Cc2ccccc2)C(=O)O)CC1 | 0.94 ± 0.19 | 1 ± 0.06 |
| CC(=O)Oc1cccc(C(=O)O)c1OC(C)=O | 1.01 ± 0.04 | 0.915 ± 0.16 |
| CC(C)c1nc(CN(C)C(=O)N[C@H](C(=O)N[C@@H](Cc2ccccc2)C[C@H](O)[C@H](Cc2ccccc2)NC(=O)OCc2cncs2)C(C)C)cs1 | 0.997 ± 0.012 | 1.22 ± 0.048 |
| COc1ccccc1OCCNCC(O)COc1cccc2[nH]c3ccccc3c12 (stereo not drawn) | 1 and 1.02 | 1.25 and 1.09 |
| S=P(N1CC1)(N1CC1)N1CC1 | 1.01 ± 0.023 | 1.07 ± 0.31 |
| CCN1CCCC1CNC(=O)c1cc(S(=O)(=O)CC)c(N)cc1OC (stereo not drawn) | 1.13 ± 0.045 | 0.959 ± 0.091 |
| Nc1nc(N)nc(-c2cc(Cl)ccc2Cl)n1 | 1.05 ± 0.041 | 0.97 ± 0.21 |
| CC(CN1c2ccccc2Sc2ccccc21)N(C)C (stereo not drawn) | 0.846 ± 0.036 | 1.19 ± 0.077 |
| NS(=O)(=O)c1cc2c(cc1C(F)(F)F)NC(Cc1ccccc1)NS2(=O)=O (stereo not drawn) | 1.06 ± 0.051 | 0.984 ± 0.01 |
| O=C(c1ccc(OCCN2CCCCC2)cc1)c1c(-c2ccc(O)cc2)sc2cc(O)ccc12 | 1.05 ± 0.084 | 0.901 ± 0.19 |
| CCn1cc(C(=O)O)c(=O)c2cc(F)c(N3CCNCC3)cc21 | 1.07 ± 0.028 | 1.19 ± 0.029 |
| CCOC(=O)C1=C(C)NC(C)=C(C(=O)OC)C1c1cccc([N+](=O)[O-])c1 (stereo not drawn) | 0.984 ± 0.069 | 1.11 ± 0.26 |
| CC1(C)S[C@@H]2[C@H](N3C(=O)[C@@H](c4ccccc4)NC3(C)C)C(=O)N2[C@H]1C(=O)O | 1 ± 0.031 | 0.974 ± 0.056 |

A second format for two compounds above:
SMILES | normalized intracellular growth (time point: T3 (3 h)) | normalized intracellular growth (time point: Tfinal (~6 h))
CCCC(C(=O)OCCN(CC)CC)(c1ccccc1)c1ccccc1 | 0.91 ± 0.067 | 0.988 ± 0.14
CN1CCC[C@H]1c1cccnc1 | 0.982 ± 0.07 | 1.07 ± 0.04
